# Some results were stated once for a whole list of compounds, not compound by compound.
# Test system: murine adipocyte plasma membrane adenylate cyclase
# Assay: Adenylate cyclase assay with adipocyte plasma membranes
# Format: biochemical, mouse
# Procedure: In a typical procedure white adipocytes were isolated from mouse epididymal fat pads as referred to above except that the cells were washed in 250 mM sucrose, 2 mM ethyleneglycol bis(β-aminoethylether)-N,N,N′,N′ (EGTA), 10 mM Tris-HCl (pH 7.4). Adipocytes were resuspended in 20 ml of the above buffer and homogenised by aspirating through a Swinny filter at least 10 times. The cell homogenate was then centrifuged at 300 g for 5 min, the fat cake removed from the surface and the remaining pellet and infranatant transferred to clean tubes. These were centrifuged at 30,000 g for 1 h at 4° C. and the membrane pellet formed was resuspended in the sucrose buffer (200 to 400 μl). Plasma membranes were separated from other organelle membranes on a self-forming gradient of Percoll™ colloidial silica particles. […]
# An adenylate cyclase assay used was based on that developed by Salomon et al. (reference 16). […] Background binding was determined by running samples without [α-^32P] […]
# Samples containing labelled nucleotides were diluted to 1 ml with water and loaded onto Dowex™ 50W8-400 ion-exchange columns primed with 10 ml of water. […] The radioactivity was determined using a Tri-carb™ 2000A scintillation analyser.
row,Molecule,Concentration at which activation of adenylate cyclase is saturable [μg/assay]
1,"Human LMF: 43 kDa glycoprotein lipid mobilising factor purified from urine of cachectic cancer patients (Example 2); Zn-α2-glycoprotein type (protein, UniProt P25311 21-298, looked up) Zinc-alpha-2-glycoprotein: QENQDGRYSLTYIYTGLSKHVEDVPAFQALGSLNDLQFFRYNSKDRKSQPMGLWRQVEGMEDWKQDSQLQKAREDIFMETLKDIVEYYNDSNGSHVLQGRFGCEIENNRSSGAFWKYYYDGKDYIEFNKEIPAWVPFDPAAQITKQKWEAEPVYVQRAKAYLEEECPATLRKYLKYSKNILDRQDPPSVVVTSHQAPGEKKKLKCLAYDFYPGKIDVHWTRAGEVQEPELRGDVLHNGNGTYQSWVVVAVPPQDTAPYSCHVQHSSLAQPLVVPWEAS",> 5
2,"Zn-α2-glycoprotein (protein, listed as Homo sapiens, Zn-α2-glycoprotein purified about 670-fold from fresh human plasma by the method of Ohkubo et al) QENQDGRYSLTYIYTGLSKHVEDVPAFQALGSLNDLQFFRYNSKDRKSQPMGLWRQVEGMEDWKEDSQLQKAREDMETLKDIVEYYNDSNGSHVLQGRFGCEIENNRSSGAFWKYYYDGKDYIEFNKEIPAWVPFDPAAQITKQKWEAEPVYVQRAKAYLEEECPATLRKYLKYSKNILDRQDPPSVVVTSHQAPGEKKKLKCLAYDFYPGKIDVHWTRAGQVQEPELRGDVLHNGNGTYQSWVVVAVPPQDTAPYSCHVQHSSLAQPLVVPWEAS",> 5

# Reference: US7550429B2, “Glycoproteins having lipid mobilising properties and therapeutic applications thereof” (Aston University, priority 1998, dated 2009)
